Experimental data from patent EP2963052A2 (Zamerton Holdings Limited, priority 2013, dated 2016).
Some peptides are written in HELM: one residue between dots, names in brackets for other building blocks, links after the first $.

Assay: general procedure: solution-phase peptide synthesis; p-nitrophenyl (ONP) active esters
Conditions: late stage modification step

Substance	step yield [%]	final HPLC purity (HPLC)
Ala-Asp-Glu-Arg	82	
PEPTIDE1{A.D.E.R}$$$$V2.0		exceeding 95%
